Source: patent publication US20260131000A1 (Memorial Sloan Kettering, published 2026)
These are yes or no findings as the source states them, for the method shown. Some entries that bind do so weakly or less than the wild type.

Chains of the proteins cited; added tags and fusions are not shown. Lines headed by an entry give the natural chain unless they say otherwise; changes in a name come on top.
UniProt P32004: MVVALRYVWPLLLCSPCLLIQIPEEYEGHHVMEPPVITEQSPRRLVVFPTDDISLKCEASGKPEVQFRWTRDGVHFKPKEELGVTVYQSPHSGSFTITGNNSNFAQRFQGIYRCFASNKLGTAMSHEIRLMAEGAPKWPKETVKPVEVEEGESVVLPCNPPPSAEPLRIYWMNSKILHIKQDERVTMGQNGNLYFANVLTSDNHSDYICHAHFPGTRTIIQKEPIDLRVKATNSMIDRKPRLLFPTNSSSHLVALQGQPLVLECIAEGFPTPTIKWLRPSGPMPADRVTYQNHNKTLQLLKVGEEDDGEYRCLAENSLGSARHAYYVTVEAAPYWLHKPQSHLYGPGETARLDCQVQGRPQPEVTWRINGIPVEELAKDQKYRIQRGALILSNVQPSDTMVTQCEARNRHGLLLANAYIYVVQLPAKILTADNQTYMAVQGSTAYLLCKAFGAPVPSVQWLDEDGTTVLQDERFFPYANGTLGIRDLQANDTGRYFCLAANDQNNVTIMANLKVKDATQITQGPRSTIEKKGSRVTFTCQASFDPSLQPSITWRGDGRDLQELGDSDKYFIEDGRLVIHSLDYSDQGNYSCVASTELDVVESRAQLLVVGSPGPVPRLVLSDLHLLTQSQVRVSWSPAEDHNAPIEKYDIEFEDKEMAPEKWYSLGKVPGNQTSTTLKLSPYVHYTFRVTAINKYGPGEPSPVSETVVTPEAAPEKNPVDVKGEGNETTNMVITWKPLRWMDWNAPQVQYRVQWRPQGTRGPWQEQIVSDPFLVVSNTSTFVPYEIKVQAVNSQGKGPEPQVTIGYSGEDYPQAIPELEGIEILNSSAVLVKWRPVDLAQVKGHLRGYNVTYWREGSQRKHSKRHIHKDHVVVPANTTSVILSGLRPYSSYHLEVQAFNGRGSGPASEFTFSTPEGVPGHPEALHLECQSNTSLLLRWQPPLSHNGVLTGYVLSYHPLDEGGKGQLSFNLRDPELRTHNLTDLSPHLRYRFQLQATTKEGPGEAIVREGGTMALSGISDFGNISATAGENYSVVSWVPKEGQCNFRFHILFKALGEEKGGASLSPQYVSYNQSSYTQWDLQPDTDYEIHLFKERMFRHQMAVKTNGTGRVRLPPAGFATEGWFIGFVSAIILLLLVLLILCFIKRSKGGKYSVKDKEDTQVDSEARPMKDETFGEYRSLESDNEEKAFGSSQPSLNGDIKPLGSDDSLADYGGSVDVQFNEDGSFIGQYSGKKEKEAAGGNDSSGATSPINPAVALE

Assays:
[1] = target: cynomolgus monkey L1CAM-His (cynomolgus monkey); assay: BLI, soluble cynomolgus monkey L1CAM-His
[2] = target: human L1CAM-His (extracellular domain of human L1CAM, isoform 1, fused to a poly-histidine tag) (human) (UniProt P32004); assay: BLI, soluble human L1CAM-His
[3] = target: human L1CAM overexpressed on HEK293T cells (human) (UniProt P32004); assay: flow cytometry, HEK293T cells overexpressing human L1CAM

Row | Binder | binding [1] | binding [2] | binding [3]
1 | 13G04 (antibody, V domains shown) VH: QVQLVQSGAEVKKPGASVKVSCKASGYTFIGYYLHWVRQAPGQGLEWMGWINPNSGGTNSAQKFQGRVTMTRDTSISTTYMDLSRLRSDDTAVYYCARGGLERRDAFDIWGQGTLVTVSS VL: DIQMTQSPSTLSASVGDRVTITCRASQSISNWLAWYQQKPGKAPNLLIYKASSLESGVPSRFSGSGSGTEFTLTISSLQPDDFATYYCQQYDTYRTFGQGTKVEIK | binds |  | 
2 | 13F04 (antibody, V domains shown) VH: QVQLQQPGAELVKPGASVKLSCKASGYIFISYWMHWVKQRPGQGLEWIGEINPRNGRTNYNEKFKSKATLTVDKSSSTAYMQLTSLTSEDSAVYYCARGGDYGGSFDYWGQGTTLTVSS VL: DIVLTQSPASLAVSLGQRATISCRASESVDSYGNSFMHWYQQKPGQPPKLLIYRASNLESGIPARFSGSGSRTDFTLTVNPVEADDVATYYCQQSNEDPWTFGGGTKLEIK | binds |  | 

The remaining lines, values ahead:

Row | binding [1] | binding [2] | binding [3] | Binder
3 | binds |  |  | 14A10 (antibody, V domains shown) VH: EVQMVESGGGLVQPGGSLRLSCAAPGFIFSSYNMNWVRQAPGKGLEWVSYISSSSSTTYYADSVKGRFTISRDNAKNSLYLQMNSLRDEDTAVYYCASLYSGYDYYYYYGMDVWGQGTTVTVSS VL: DIVMTQTPLSSPVSLGQPASISCRSSQSLVHSDGNTYLSWLQQRPGQPPRVLIYKISKRFSGVPDRFSGSGAGTDFTLKISRVEAEDVGVYYCMQATQFPFTFGPGTKVDIK
4 | binds | binds | binds | 143G03 (antibody, V domains shown) VH: QVQLRQSGAELVRPGTSVKMSCKASGYTFTNYYIHWVKQRPGQGLEWIGKIGPGSGSPYYNGMFKDKATLTVDTSSSTAYMQLSSLTSEDSAVYFCARWLLPFDYWGQGTTLTVSS VL: QIVLSQSPGILSASPGEKVTMTCRASSSVNYMHWYQQKSGSSPKPWIFATSILASGVPPRFSGSGSGTSYSLTISSVEAEDTATYYCQQFSSDPLTFGAGTKLELK
